Primary screen of a compound library

A: 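Growth of Mycobacterium tuberculosis over 4 days (cholesterol / DPPC medium with tyloxapol); the read-out is not stated. Compounds at 50 µM. Higher reads as more growth inhibition (inferred: compounds with an IC50 in retests scored well above the rest). About 69,000 compounds were tested under these conditions; 0.54% (about 370) showed 50% or more at least once.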
B: 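Whole-cell growth test on Mycobacterium tuberculosis, read after 3 days in glucose-containing 7H9 medium; the read-out is not stated. Concentration: 50 µM. Higher reads as more growth inhibition (inferred: compounds with an IC50 in retests scored well above the rest). Of about 69,000 compounds tested this way, about 760 (1.1%) reached 50% or more in at least one test.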

The filed quantity is “Percent Effect” (%). The controls that fix the scale are not given in the record; negative values are as filed. Compounds were drawn at random from those tested, without regard to their results. Two or more numbers in one place are separate tests of the same structure; such repeats can differ widely.

Compound	A	B
[H][C@@]12CC(=O)N(Cc3csc(C)n3)[C@@]1([H])CCN2S(=O)(=O)C1CC1	3.588	17.48
CCCn1ncnc1C(C)NC(=O)C1CCN(C(C)C)CC1 (stereo not drawn)	5.465 & 2.039	11.78 & 0.7813
CC(C)(O)c1cn(C2CCN(C(=O)CCc3ccncc3)CC2)nn1	16.63	-2.348 & 9.132
CC(=O)Nc1ccc(Oc2cc(C)nc(C3CCNCC3)c2)cc1.Cl	5.434 & -6.333	-1.633
COc1ccc(F)c(CN2CC(=O)N(c3ccccc3C)CC2C)c1 (stereo not drawn)	-10.07	0.7867
O=C(O)C(F)(F)F.O=C(O)C(F)(F)F.O=C(O)C(F)(F)F.[H][C@]12CCN(Cc3cccnc3)[C@@]1([H])CC[C@@H](COCCN1CCCC1)O2	-0.8628	-5.558
O=c1oc(-c2cccs2)nn1CC(O)c1ccc(F)cc1 (stereo not drawn)	-4.789	15.81
C1CN(Cc2noc(C3CC3)n2)CCN(Cc2nnc(C3CC3)o2)C1	-0.1073	-19.06
Cc1nc(C)c(C(=O)NCc2nc3cccc(C)c3n2C)o1	3.906	0.4409
CC(NC(=O)N(C)C1CC1)c1ccc(Oc2cccnc2)c(F)c1 (stereo not drawn)	3.947	10.27
N#Cc1ccc(N2CCCN(CC(=O)N3CCC3)CC2)cc1	6.983	3.936
CCN1CCn2cc(CNC(=O)c3cnn(C)c3)nc2C1.O=C(O)C(F)(F)F.O=C(O)C(F)(F)F	-7.788	-21.1
Cc1nnc2ccc(N3CCC4(CCOC4)C3)nn12 (stereo not drawn)	-3.621	6.294 & -8.187
Cc1ccc(CN2CCn3c(CN4CCN(C)CC4)cnc3C2C)s1.O=C(O)C(F)(F)F.O=C(O)C(F)(F)F.O=C(O)C(F)(F)F (stereo not drawn)	-15.94	-44.77
Cc1cccc(C(C(=O)NC(C)(C)CN2CCCC2)N(C)C)c1 (stereo not drawn)	-10.47	23.56
Cc1cnc2n(c1=O)C(CC(=O)NCc1ccco1)CS2 (stereo not drawn)	-9.026	13
Cc1nc(CN2CCOC(Cn3cccn3)C2)nc2ccccc12 (stereo not drawn)	8.441	5.413
CC(NC(=O)N1CCC2(C1)OCCO2)c1cccc(Cl)c1 (stereo not drawn)	12.64	18.97
CN(Cc1cccs1)C(=O)CN1C(=O)c2cc(Cl)c(Cl)cc2C1=O	-13.39	-0.6502
COc1ccccc1-n1cc(C(=O)NCCCn2ccnn2)cn1	-14.39	-15.38
O=c1ccc2c(n1CC1CC1)CCN(c1ncccn1)CC2	-7.352	7.412
CC(C)S(=O)(=O)N1CCC(c2cc3n(n2)[C@@H](C(F)(F)F)C[C@@H](C)N3)C1 (stereo partly drawn)	-5.587	10.02
N[C@@H]1CCC[C@@H](Oc2ccc(F)cc2Oc2ccccc2)[C@@H]1O	-2.167	23.9
CC(Oc1ccc2c(c1)OCO2)C(=O)N1CCC(c2ncc[nH]2)CC1 (stereo not drawn)	-11.13	-26.52
O=C1NCC(c2ccc(F)cc2)Cc2[nH]c(CCN3CCCC3)nc21 (stereo not drawn)	-1.319	21.6 & 27.46
CC(=O)N1CCN(C(=O)NCc2ccc(Cl)s2)CC1	-18.65	3.104
NC(=O)C1CCN(CCCNC(=O)Nc2nncs2)CC1	-11.07	-16.22
O=C(O)C(F)(F)F.[H][C@@]12COC[C@]1(COCC(=O)N1CCCC1)CN(C1CCC1)C2	5.361	-51.28
Cc1cccc(OCCNC(=O)Cn2ccc(C)cc2=O)c1	8.828	24.25
COc1cc(Oc2ncccc2C(F)(F)F)ccc1CN1CCCC1	19.93	54.89 & 36.96
COc1ccc2[nH]cc(-c3ccnc(N4CCC(C)CC4)n3)c2c1	-9.341	3.601
COc1ccc(CCNCc2ccco2)cc1OC	-2.579	15.71
CCOC(=O)c1cc(C(C)(O)CCC=C(C)C)on1 (stereo not drawn)	115.2	88.78 & 108.4
O=C1CCC2(CCN(c3ncc(F)cn3)CC2)N1CCN1CCCC1	-15.51	-16.62
CC(=O)Nc1nc(C(=O)N2CCCC2c2ccccc2C)cs1 (stereo not drawn)	-9.233	1.832
CNC(=O)CCN1CCN(C(C)c2ccc(Cl)cc2)CC1 (stereo not drawn)	4.181 & -6.564	-10.04
[H][C@@]12CN(C(=O)Nc3ccc(F)cc3)C[C@]1([H])OCC(=O)N2C	13.91	19.49 & 8.251
Cn1cc(NC(=O)Cc2ccccc2Br)cc1C(N)=O	-9.211	-3.17
Cc1cnn(CC2CCCCN2C(=O)Cc2cn3ccsc3n2)c1 (stereo not drawn)	-31.6	-30.38
Fc1ccccc1CN1CCC[C@@H](Cn2nnc(-c3cccs3)n2)C1	29.94 & 38.06	51.28
CC(C)COc1cncc(NC(CO)c2ccco2)n1 (stereo not drawn)	-33.16	-3.781
COCCN1CC[C@]2(CN(C(=O)c3cccs3)C[C@H]2C)C1=O	15.81	4.059
COc1cc(Cl)ccc1C(=O)NCc1nncn1C	-11.8	-9.941
Cc1ccc(C(C)NC(=O)N2CCCN(CC(F)F)CC2)s1 (stereo not drawn)	7.323	16.77
CC1CCCCN1C(=O)CN1CCN(c2ccc3nncn3n2)CC1 (stereo not drawn)	4.068	7.581
Cc1nccn1CCC1CCCCN1C(=O)c1ccc2[nH]nnc2c1 (stereo not drawn)	4.31	18.93
Cc1sc(N)nc1-c1ccc(Cl)cc1	-14.63	3.626
CCCOc1c(CNC2CCSC2)cccc1OC (stereo not drawn)	-5.059	-14.69 & -2.969
Cc1nnc2ccc(OCCNS(C)(=O)=O)nn12	-10.36	-22.51
CCC(CC)CNC(=O)N(C)C(C)c1ccccn1 (stereo not drawn)	6.95 & -42.09	26.09
Cn1ccnc1C(O)c1ccccc1N1CCN(CC2CCCC2)CC1 (stereo not drawn)	-13.26 & -2.599	-4.433
CC(=O)CSc1nc2c(cnn2CCO)c(=O)[nH]1	-16.3	-12.33
CC(C)(C)c1n[nH]cc1CNC1CCC(O)CC1 (stereo not drawn)	5.476	7.338
CCN1CCN2CCCN(S(=O)(=O)c3ccc(S(C)(=O)=O)cc3)C2C1=O (stereo not drawn)	12.96	23.3 & -0.9596
CC(=O)c1c(C)cc(C)c(Cn2ccnc2S(C)(=O)=O)c1C	-14.27	-9.496 & 2.504
Nc1cnc(-c2ccc(F)cc2Cl)cn1	-16.94	5.631 & 15.47
[H][C@@]12CCN(c3cnccn3)C[C@@]1(C(=O)O)CCCN2Cc1nccs1	-20.17 & 1.85	-9
CN(C(=O)NCC1(CN2CCOCC2)CCCCC1)C1CC1	-11.91	-7.144
Cn1c(=O)c2cc(C(=O)NCc3ccncc3)ccc2n(C)c1=O	-12.74	3.423
CC(C)c1nccn1C1CCCN(C(=O)c2cc(C(N)=O)cs2)C1 (stereo not drawn)	-14.34	-2.017
O=C(NCCCn1ccnc1)C1COCC(=O)N1Cc1ccccc1 (stereo not drawn)	6.106	-0.9759 & -3.846
[H][C@@]12CN(Cc3csc(C)n3)C[C@]1([H])CN(C(=O)c1ccoc1C)C2	10.6	11.42
Cc1ncsc1CN1CCOC(C)(C(N)=O)C1 (stereo not drawn)	-15.72	-25.27
CC(C)N(C)Cc1noc2c1CN(C(=O)c1ccsc1)CC2	-1.894	-0.6803 & 11.76
CC(C)OCCN1CCC(Nc2ccc(C#N)cc2F)CC1	4.021	-10.32 & 0.9762
COCc1nc(CN2CCOC(CN(C)c3cccnn3)C2)cs1 (stereo not drawn)	-11.09	-26.92
CC(C)n1c(C(=O)N2CCCC2)nc2c1CCN(C)C2.O=C(O)C(F)(F)F	5.939	-1.986 & -2.946
Cc1cnn(CC2CN(CCc3ccccn3)CCO2)c1 (stereo not drawn)	-22.93	-20.89
O=C(N[C@@H]1CN(Cc2cccc3[nH]ccc23)C[C@H]1O)c1cscn1	4.594	-22.55
CC(C)(C)n1ncc2c1CCCC2NCc1cccc2c1OCCO2 (stereo not drawn)	-12.75	-3.147
Cc1cc(CN(C)C(=O)NCc2ccnc(OC3CCCC3)c2)no1	14.2	6.121

6 of the entries, repeated:

{"compound": "COc1ccccc1-n1cc(C(=O)NCCCn2ccnn2)cn1", "A": -14.39, "B": -15.38}
{"compound": "O=C1NCC(c2ccc(F)cc2)Cc2[nH]c(CCN3CCCC3)nc21", "stereo": "stereo not drawn", "A": -1.319, "B": "21.6 & 27.46"}
{"compound": "CCN1CCn2cc(CNC(=O)c3cnn(C)c3)nc2C1.O=C(O)C(F)(F)F.O=C(O)C(F)(F)F", "A": -7.788, "B": -21.1}
{"compound": "Cc1nc(C)c(C(=O)NCc2nc3cccc(C)c3n2C)o1", "A": 3.906, "B": 0.4409}
{"compound": "CNC(=O)CCN1CCN(C(C)c2ccc(Cl)cc2)CC1", "stereo": "stereo not drawn", "A": "4.181 & -6.564", "B": -10.04}
{"compound": "Cc1nc(CN2CCOC(Cn3cccn3)C2)nc2ccccc12", "stereo": "stereo not drawn", "A": 8.441, "B": 5.413}

From ChEMBL document CHEMBL3988442, “University of Dundee, Small-Polar-MMV Screening Library” (2021).